Measured data: PubChem BioAssay AID1259424 (University of Nebraska Medical Center, 2018)
Aim: 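Seek colon cancer survival genes behaving like KSR1, using a six-gene signature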 (primary screen). Cells: human HCT116 colon cancer cells. Reagent: siRNA pool against human genes, 50 nM. Measurement: 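Log2 levels of six mRNAs (branched-DNA multiplex), adjusted by two reference genes and the non-targeting median, then scored against the average KSR1 knockdown pattern as Pearson r and euclidean distance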. Direction: mean correlation with KSR1 profile: higher = expression change more like KSR1 knockdown.
The whole screen tested about 14,000 reagents; below is a part drawn at random. 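Higher correlation or smaller distance means closer resemblance to KSR1 loss; control wells, including KSR1 knockdowns, recur on many plates.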 Not all columns of the deposit are shown. No sequences are given here. Not given: the time to read-out.

no.	Gene	mean correlation with KSR1 profile
1	POP4	0.0264
2	KIAA0586	-0.111
3	MARS1	-0.331
4	KDM5D	-0.554
5	KLHL41	0.147
6	GULP1	0.194
7	ARHGEF18	-0.156
8	ZNF395	0.885
9	CST6	0.0205
10	GRB10	0.314
11	CLIC3	-0.205
12	NMB	0.137
13	INSM2	0.159
14	ACBD6	0.0507
15	DXO	0.504
16	ZNF541	0.871
17	ZNF14	0.495
18	MPC1	0.0288
19	RIC3	-0.0841
20	KRTAP9-3	0.819
21	NFKB2	-0.16
22	POU2AF1	-0.838
23	ITIH1	-0.49
24	DNAJB14	0.589
25	DIRAS3	0.262
26	PHOX2B	0.539
27	GPR15	-0.746
28	MEX3B	0.805
29	MAGEB1	0.111
30	ADM	-0.165
31	EIF4A2	-0.688
32	HSBP1	0.547
33	NEU3	0.0959
34	YIPF2	-0.223
